Data as given in PubChem BioAssay AID743121 (NCATS, 2013).
This is an unselected part of about 26,000 reagents tested. 167 of all reagents (0.63%) were called active. 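Calls are per gene from RSA p-values that are not deposited; an individual active-marked siRNA can sensitise only weakly.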 Unmarked entries are inactive. The numbers tell different reagents against one gene apart. Not all columns of the deposit are shown.

- Assay: 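Partners whose loss is lethal together with topoisomerase I blockade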 (primary screen)
- Cells: MDA-MB-231 cells, a human breast cancer line
- Reagents: single siRNA against human genes, 20 nM siRNA (0.8 pmol per well)
- Time to read-out: 120 h (drug added 48 h after transfection, read 72 h later)
- Conditions: camptothecin 20 nM (about EC30) for 72 h; vehicle 0.1% DMSO in parallel plates
- Measured: 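Cell viability by ATP luminescence (CellTiter-Glo) as % of non-targeting siRNA wells, and the log2 ratio of viability without drug over viability with camptothecin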
- Scale: log2 vehicle/camptothecin viability: higher = stronger sensitisation to camptothecin; viability with camptothecin: higher = more viable cells
- Units: viability with camptothecin in % of control
- Call rule: 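Active genes have an RSA gene-level p-value below 0.001, computed from the ratios of their separate siRNAs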

Depletion of APCS #1 gave: log2 vehicle/camptothecin viability -0.183; viability with camptothecin 126.
Silencing of APCS #2 gave: log2 vehicle/camptothecin viability -0.336; viability with camptothecin 72.9.
After knock-down of APCS #3, the record shows log2 vehicle/camptothecin viability -0.421; viability with camptothecin 63.4.
Silencing of ARSA #1 gave: log2 vehicle/camptothecin viability -0.24; viability with camptothecin 86.9.
After knock-down of ARSA #2, the record shows log2 vehicle/camptothecin viability -0.232; viability with camptothecin 104.
Against ARSA #3, the values are log2 vehicle/camptothecin viability 0.352; viability with camptothecin 50.9.
Against ARSA #4, the values are log2 vehicle/camptothecin viability 0.327; viability with camptothecin 49.9.
With knock-down of DPP4 #1, the record shows log2 vehicle/camptothecin viability -0.218; viability with camptothecin 95.6.
For DPP4 #2, the entry reads log2 vehicle/camptothecin viability -0.258; viability with camptothecin 35.1.
DPP4 #3 showed log2 vehicle/camptothecin viability -0.25; viability with camptothecin 156.
DPP4 #4 scored log2 vehicle/camptothecin viability 0.118; viability with camptothecin 61.7.
SENP8 #1 gave log2 vehicle/camptothecin viability -0.0104; viability with camptothecin 86.9.
Silencing of SENP8 #2 came out at: log2 vehicle/camptothecin viability -0.405; viability with camptothecin 131.
SENP8 #3 gave log2 vehicle/camptothecin viability -0.186; viability with camptothecin 108.
After knock-down of SENP8 #4 the results were log2 vehicle/camptothecin viability 0.0756; viability with camptothecin 68.4.
Knock-down of TH #1 gave: log2 vehicle/camptothecin viability -0.536; viability with camptothecin 88.4.
After knock-down of TH #2, the record shows log2 vehicle/camptothecin viability 0.0545; viability with camptothecin 95.
Depletion of TH #3 resulted in: log2 vehicle/camptothecin viability -0.467; viability with camptothecin 37.8.
For TH #4, the values are log2 vehicle/camptothecin viability -0.365; viability with camptothecin 94.8.
For IMMP2L #1 the deposit lists log2 vehicle/camptothecin viability 0.363; viability with camptothecin 15.
After knock-down of IMMP2L #2, the screen gave log2 vehicle/camptothecin viability -0.125; viability with camptothecin 102.
With knock-down of IMMP2L #3, the record shows log2 vehicle/camptothecin viability 0.759; viability with camptothecin 78.8.
Against DNAJC16 #1, the entry reads log2 vehicle/camptothecin viability -0.237; viability with camptothecin 101.
Silencing of DNAJC16 #2 came out at: log2 vehicle/camptothecin viability 0.133; viability with camptothecin 70.8.
Silencing of DNAJC16 #3 gave: log2 vehicle/camptothecin viability -0.158; viability with camptothecin 86.4.
Against DNAJC16 #4, the entry reads log2 vehicle/camptothecin viability -0.298; viability with camptothecin 80.4.
Depletion of ADAMTS8 #1 gave: log2 vehicle/camptothecin viability 0.0942; viability with camptothecin 78.8.
ADAMTS8 #2 scored log2 vehicle/camptothecin viability -0.402; viability with camptothecin 81.6.
With knock-down of ADAMTS8 #3, the screen gave log2 vehicle/camptothecin viability -0.139; viability with camptothecin 101.
Silencing of IKBKB #1 came out at: log2 vehicle/camptothecin viability -0.234; viability with camptothecin 61.8.
IKBKB #2 gave log2 vehicle/camptothecin viability -0.471; viability with camptothecin 84.3.
IKBKB #3 gave log2 vehicle/camptothecin viability 0.14; viability with camptothecin 80.9.
IKBKB #4 gave log2 vehicle/camptothecin viability -0.0694; viability with camptothecin 65.4.
After knock-down of AKR1C2 #1 the results were log2 vehicle/camptothecin viability 0.172; viability with camptothecin 53.3.
Against AKR1C2 #2, the values are log2 vehicle/camptothecin viability -0.081; viability with camptothecin 107.
After knock-down of AKR1C2 #3 the results were log2 vehicle/camptothecin viability 0.162; viability with camptothecin 96.9.
AKR1C2 #4 showed log2 vehicle/camptothecin viability -0.34; viability with camptothecin 76.6.
With knock-down of AKR1C2 #5, the screen gave log2 vehicle/camptothecin viability -0.0883; viability with camptothecin 106.
AKR1C2 #6 scored log2 vehicle/camptothecin viability 0.092; viability with camptothecin 85.2.
Knock-down of AKR1C2 #7 came out at: log2 vehicle/camptothecin viability -0.119; viability with camptothecin 117.

In a second layout: results already given
IMMP2L #2
- log2 vehicle/camptothecin viability: -0.125
- viability with camptothecin: 102

IMMP2L #3
- log2 vehicle/camptothecin viability: 0.759
- viability with camptothecin: 78.8

DNAJC16 #1
- log2 vehicle/camptothecin viability: -0.237
- viability with camptothecin: 101

DNAJC16 #2
- log2 vehicle/camptothecin viability: 0.133
- viability with camptothecin: 70.8

DNAJC16 #3
- log2 vehicle/camptothecin viability: -0.158
- viability with camptothecin: 86.4

DNAJC16 #4
- log2 vehicle/camptothecin viability: -0.298
- viability with camptothecin: 80.4

ADAMTS8 #1
- log2 vehicle/camptothecin viability: 0.0942
- viability with camptothecin: 78.8
